The assay addresses eRF3 (amino acid residues 166-685, expressed from pET-15b) (UniProt P05453). In words: [3H]-AzAt photoaffinity labeling of eRF1, eRF3 alone and of the eRF1.eRF3.GDPNP ternary complex.

By UniProt entry, the sequences of proteins in these tests, tags left out. Residues count along the entry.
UniProt P05453, residues 166-685: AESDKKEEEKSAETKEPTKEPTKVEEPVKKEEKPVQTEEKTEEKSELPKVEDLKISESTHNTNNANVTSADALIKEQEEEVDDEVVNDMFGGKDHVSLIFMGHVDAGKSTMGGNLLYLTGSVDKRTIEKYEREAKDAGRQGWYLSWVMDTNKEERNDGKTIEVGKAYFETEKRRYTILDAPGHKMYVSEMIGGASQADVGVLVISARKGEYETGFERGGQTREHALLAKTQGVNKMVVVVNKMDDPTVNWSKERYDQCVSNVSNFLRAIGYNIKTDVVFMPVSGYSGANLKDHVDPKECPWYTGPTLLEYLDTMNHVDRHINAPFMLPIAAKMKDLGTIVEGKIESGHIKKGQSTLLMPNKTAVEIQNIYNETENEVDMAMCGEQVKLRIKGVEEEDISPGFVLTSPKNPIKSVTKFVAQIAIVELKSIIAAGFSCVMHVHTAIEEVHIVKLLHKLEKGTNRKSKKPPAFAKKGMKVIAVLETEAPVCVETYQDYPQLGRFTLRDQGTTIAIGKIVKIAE
UniProt P12385: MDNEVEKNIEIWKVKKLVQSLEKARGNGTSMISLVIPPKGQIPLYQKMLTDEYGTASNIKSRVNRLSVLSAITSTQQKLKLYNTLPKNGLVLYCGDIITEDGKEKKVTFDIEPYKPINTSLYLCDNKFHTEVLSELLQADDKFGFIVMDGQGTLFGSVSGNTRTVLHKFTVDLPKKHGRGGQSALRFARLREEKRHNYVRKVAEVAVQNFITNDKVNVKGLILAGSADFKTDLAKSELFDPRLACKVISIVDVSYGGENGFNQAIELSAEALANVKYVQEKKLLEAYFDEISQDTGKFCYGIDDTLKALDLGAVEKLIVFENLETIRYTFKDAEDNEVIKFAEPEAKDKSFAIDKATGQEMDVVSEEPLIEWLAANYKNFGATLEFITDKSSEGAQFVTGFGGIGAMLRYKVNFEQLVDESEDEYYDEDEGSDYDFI

Results are given in words; binding and its absence hold for the method and conditions named. Some entries that bind do so weakly or less than the wild type.

For “eRF1 (full-length, expressed from pET-15b) (from UniProt P12385 1-437)”, the binding entry is “binds”.

(Values after patent US20230235374A1, “High Throughput Assays for Detecting Translation Readthrough Inducers” (The Trustees of the University of Pennsylvania, priority 2021, published 2023).)
